The test system of this series is isolated rat lungs. In words: Isolated blood perfused flooded rat lung (weight, lung mechanics, PV curves, histology). The note with it: for lung weight increase: first 15 minutes of reperfusion, before alveolar flooding, TNF 5 μg, peptides 1 mg intratracheal.

As for “CGPKDTPEGAELKPWYC (cyclic; listed as Mus musculus) [cyclic mu Ltip]”, the lung weight increase entry is “+0.80±0.61 g”. Further, where the note is “1 mg”, the “time after which Cdyn change is statistically significant compared to NaCl-treated lungs” value worked out at 15 min and the “time at which peak AWP change is statistically significant compared to NaCl-treated lungs” value is 60 min. Also, the “time after which lung weight is statistically different from saline-treated lungs” value (reperfusion after flooding, 1 mg) was determined as 45 min.

For the substance “TNF: E.coli-derived recombinant murine TNF”, the lung weight increase entry was “+0.87±0.60 g”.

Values taken from US7258861B2, “TNF-derived peptides for use in treating oedema” (Innogenetics N.V., priority 2001, dated 2007).
